# Data from article PMC8464984, “AimR Adopts Preexisting Dimer Conformations for Specific Target Recognition in Lysis-Lysogeny Decisions of Bacillus Phage phi3T” (Biomolecules, 2021).
# Construct, isoform or probe ends are uncertain for at least one entry. No signal at the amounts used counts as a negative. Where a protein sequence is shown, tags need not be part of it.
# Target: T1, phAimR wild type (Bacillus phage phi3T) (UniProt P0DOE3)
# T1 sequence (looked up, limits assumed): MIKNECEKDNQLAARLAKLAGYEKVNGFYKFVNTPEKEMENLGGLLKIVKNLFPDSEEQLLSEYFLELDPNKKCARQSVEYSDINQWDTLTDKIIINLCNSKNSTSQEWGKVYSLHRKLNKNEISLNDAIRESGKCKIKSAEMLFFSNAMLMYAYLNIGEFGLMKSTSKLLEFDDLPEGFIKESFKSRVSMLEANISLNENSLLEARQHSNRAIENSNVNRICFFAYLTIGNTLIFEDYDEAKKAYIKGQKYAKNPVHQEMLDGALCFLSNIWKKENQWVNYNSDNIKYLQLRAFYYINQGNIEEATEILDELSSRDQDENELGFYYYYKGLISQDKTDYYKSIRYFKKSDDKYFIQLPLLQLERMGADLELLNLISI
# Experiment: EMSA
# Details: SAIRGA peptide, 10-fold molar excess, 5 mM MgCl2; EMSA: 25 mM Tris-HCl pH 8.0, 150 mM NaCl, 5 mM MgCl2, 5 mM DTT, 0.1 mg/mL BSA, 10% glycerol, room temperature 10 min, 5 nM probe, protein 0-1 (printed 'M', probably uM); recombinant protein; protein details: N-terminal 6xHis removed with drICE protease; label: FAM
sequence,measurement,value
"GAAATGTCCAGAAATTCAAAAATCAAAAAATAAGAACATGG (double strand) [phi3T target DNA 41 bp, FAM probe]",binding result,no binding
